This assay can be described thus: qHTS Assay to Find Inhibitors of Chronic Active B-Cell Receptor Signaling. The settings on record: ABC-DLBCL IkBa-CBG/CBR reporter, luminescence ratio (green luciferase fused to IkBa over red control in TMD8 lymphoma cells), 4 h. The essentials:
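TMD8 human ABC-DLBCL cells with doxycycline-inducible IκBα–green luciferase fusion and unfused red luciferase, in 0.5% FBS medium; compounds up to 46 uM, 4 h at 37C. Green/red luminescence ratio, filter-overlap corrected, fitted to concentration-response curves.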
(In qHTS, concentration-response curves come from the screen itself.)

Setting [1] is: measured here: CBR red luminescence, cell number.
[2] abbreviates: measured here: IkBa-CBG green luminescence.

The list shows a part of the results. The main result of the screen is listed elsewhere. These columns were measured beside it and carry no call. The list favours compounds with an active or inconclusive main result. Words in brackets tell the shape of the fitted curve; partial curves, single points and poor fits give uncertain potencies.

One may read the AC50 as the concentration at which the activity in the assay is half-maximal. Turning to `Cc1cc2nc(=O)c(/C=C3\C=Nc4ccccc43)c(N)n2o1`, the AC50 under setting [1] was 22.4 µM [rising, partial curve, poor fit]. The same measure, in the same setting: for `CC(C)c1c(O)c2c(n(-c3ccccc3)c1=O)CCCC2` the value was 3.26 µM [rising, single point]; for `CCOC(=O)c1[nH]c(C)c(C(=O)OCC(=O)N(CC)C2CCS(=O)(=O)C2)c1C` (stereo unspecified), 2.31 µM [falling, partial curve]. On the same count and under the same terms, for `O=C(NCc1ccc(Cl)cc1)c1ccc(CNS(=O)(=O)c2ccc(F)cc2)cc1` the value was 12.6 µM [rising, partial curve, poor fit]; for `CC(C)N1CCc2c(sc(NC(=O)c3ccc(S(=O)(=O)N(C)C4CCCCC4)cc3)c2C(N)=O)C1`, 17.8 µM [falling, partial curve, poor fit]. The same measure, in the same setting: as for `COCCNC(=O)c1onc(CSc2ccc(F)c(F)c2)c1C(=O)O`, the figure is 28.2 µM [falling, single point].

With `CCOC(=O)N/N=C/c1ccc(Oc2ccccc2)cc1`, the AC50 under setting [1] is 15.8 µM [falling, single point]. On the same count and under the same terms, as for `O=C(NC1CCCCC1)C(c1cccnc1)N(C(=O)CCl)c1ccc(F)cc1` (stereo unspecified), the figure is 10.3 µM [falling, partial curve, poor fit]; as for `CCOC(=O)c1oc2nc3c(cc2c1N)CCCC3`, 35.5 µM [falling, single point]; as for `CN(CCO)C(=O)c1ccc(-c2nn(C)c(=O)c3ccccc23)cc1`, 4.47 µM [rising, full curve, poor fit].

As to `CCOC(=O)N1CCC(Nc2ncnc3c2cnn3-c2ccccc2)CC1`, the AC50 under setting [2] is 9.2 µM [rising, partial curve, poor fit]. On to `CCCCN=Cc1c(C)[nH]n(-c2ccccc2)c1=S`, for which the AC50 under setting [1] is 4.47 µM [rising, full curve, poor fit]. The same measure, in the same setting: for `CCOc1ccccc1Nc1nc(-c2sc(NC(=O)c3ccco3)nc2C)cs1` the value was 4.47 µM [falling, partial curve]; for `COc1ccc(OCc2cc(C(=O)NCC3CCOCC3)no2)c(Cl)c1`, 3.16 µM [rising, single point].

In the case of `COc1cc(C2=NOC(C(=O)NCc3ccc(F)cc3)C2)cc(OC)c1OC` (stereo unspecified), the AC50 was 4.61 µM [rising, partial curve, poor fit] under setting [1] and 2.91 µM [falling, full curve] under setting [2]. Regarding `CN1CCC(N(C)C(=S)NC(=O)C23CC4CC(CC(C4)C2)C3)CC1`, the AC50 under setting [1] is 23.1 µM [rising, partial curve, poor fit]. Still for that read-out and setting: for `COc1ccc(-c2nc(CC(=O)O)cs2)cc1` the value was 14.6 µM [rising, single point].

Take `COc1cccc(OC)c1C(=O)Nc1ccccc1NC(=O)c1c(OC)cccc1OC`: the AC50 under setting [1] is 7.08 µM [rising, full curve, poor fit]. Same read-out and setting: for `CC1CCN(C(=O)c2cccc(NC(=O)c3cccs3)c2)CC1` the value was 14.1 µM [falling, partial curve, poor fit]; for `Cc1noc(NC(=O)c2c(-c3c(Cl)cccc3Cl)noc2C)c1[N+](=O)[O-]`, 31.6 µM [rising, single point].

As for `CCN(CC)C(=O)c1ccc(-c2cccs2)s1`, under setting [1], the AC50 is 0.447 µM [rising, full curve, poor fit]. Turning to `O=C(N/N=C/c1ccccc1)c1c(O)c2ccccc2[nH]c1=O`, the AC50 under setting [1] is 0.731 µM [falling, full curve].

Take `Cc1ccc(CN(CC(=O)NC2CCCC2)C(=O)CSc2nnc(COc3ccccc3)o2)cc1`: the AC50 under setting [1] was 0.116 µM [falling, partial curve, poor fit]. The same measure, in the same setting: for `Cc1ccc(OCC(=O)Nc2ccc(-c3nnc(-c4ccco4)o3)cc2)cc1` the value was 3.16 µM [rising, partial curve, poor fit]; for `c1nc(CCO[C@H]2CCCCO2)cc2cc3c(cc12)OCO3`, 18.4 µM [falling, single point]. On to `c1ccc2c(NCC3CCCO3)nc(N3CCCCC3)nc2c1` (stereo unspecified), for which the AC50 under setting [1] is 35.5 µM [rising, partial curve, poor fit].

For the compound `C[C@H]1CN=C(N(C)C)N1CC1CCC(C(C)(C)C)CC1` (stereo partly specified), the AC50 under setting [1] is 20.6 µM [falling, single point]. On the same count and under the same terms, for `COc1ccc(Nc2nc3ccccc3n3nnnc23)cc1` the value was 29.1 µM [falling, single point]. In the case of `CCc1nnc(NC(=O)CSc2nnc(-c3ccccc3NC(=O)c3ccccc3)o2)s1`, the half-maximal activity concentration (AC50) runs as follows: under setting [1], 22.4 µM [falling, single point]; under setting [2], 15.8 µM [falling, partial curve].

`CCN(CC)CCn1c2c(c(SCC(=O)Nc3cccc4ccccc34)nc1=O)CCCC2`: the AC50 under setting [1] is 29.1 µM [falling, single point]. On the same count and under the same terms, as for `Oc1ccc2ccccc2c1CNc1ccc(Br)cc1`, the figure is 4.47 µM [falling, partial curve, poor fit]. On the same count and under the same terms, as for `Cc1[nH]c(=O)[nH]c(=O)c1CSc1nnc([C@@H](NC(=O)OC(C)(C)C)C(C)C)o1`, the figure is 35.5 µM [rising, partial curve, poor fit]. The same measure, in the same setting: as for `CC(Oc1ccccc1)C(=O)N1CCN(C(=O)C(C)Oc2ccccc2)CC1` (stereo unspecified), the figure is 2.51 µM [rising, partial curve, poor fit]. As to `CC1CN(S(=O)(=O)c2ccc(C(=O)N3CCc4ccccc43)cc2)CC(C)O1` (stereo unspecified), the AC50 under setting [2] is 29.1 µM [rising, partial curve, poor fit]. In the case of `COc1ccc(-n2c(=S)[nH]c3cc(C(=O)Nc4ccc(F)cc4)ccc3c2=O)c(OC)c1`, the AC50 under setting [1] is 31.6 µM [falling, single point]. On to `CC(C)(C)NC(=O)NCC1CCCC1NC(=O)NC(C)(C)C` (stereo unspecified), for which the AC50 under setting [1] is 0.398 µM [falling, partial curve, poor fit]. Still for that read-out and setting: for `CCC(C)NC(=O)Nc1ccc(Br)cc1Cl` (stereo unspecified) the value was 10 µM [rising, partial curve, poor fit]. The same measure, in the same setting: for `CC(C)Oc1cccc(C(=O)N/N=C/c2ccoc2)c1` the value was 2.82 µM [falling, full curve, poor fit]; for `O=C(CCn1nnc2ccccc21)Nc1nnc(COc2ccccc2F)s1`, 0.517 µM [falling, full curve, poor fit]. On the same count and under the same terms, as for `O=C(O)c1ccc(CSc2nnc(COc3ccc(Cl)cc3Cl)o2)cc1`, the figure is 23.1 µM [falling, single point]; as for `COc1ccccc1C(=O)COC(=O)CCCN=C1NS(=O)(=O)c2ccccc21`, 10.3 µM [rising, partial curve]; as for `O=C(COc1ccc(Cl)cc1Cl)Nc1ccccc1NS(=O)(=O)c1cccs1`, 11.2 µM [rising, partial curve, poor fit]. For `CCOC(=O)C1=C(C)N=C2c3ccccc3C(=O)C2C1c1ccc(Br)cc1` (stereo unspecified), the half-maximal activity concentration (AC50) under setting [1] was 23.1 µM [falling, single point] and the AC50 under setting [2] is 32.6 µM [rising, partial curve, poor fit].

With `CC(=O)Nc1ccc(SCC(=O)N(CCC#N)c2cc(C)cc(C)c2)cc1`, the AC50 under setting [1] is 5.17 µM [falling, single point]. The same measure, in the same setting: for `Cc1nc(S/C(=C/c2ccc(-c3ccc(C(=O)O)cc3)o2)C(=O)O)n[nH]1` the value was 20 µM [falling, single point].

With `COc1ccc(Cl)cc1NC(=O)C(C)Sc1nnc(C2CC2)n1C1CC1` (stereo unspecified), the AC50 under setting [1] is 6.51 µM [falling, partial curve, poor fit]. On the same count and under the same terms, for `Cc1ccc2cccc(O)c2[n+]1[O-]` the value was 6.31 µM [falling, single point]. The same measure, in the same setting: for `CCc1nc2scc(-c3cccs3)c2c(=O)o1` the value was 18.4 µM [falling, single point]; for `NS(=O)(=O)c1ccc(NNC(=O)c2cccs2)cc1`, 6.31 µM [falling, single point]; for `COC(=O)c1ccccc1NC(=O)C(=O)NCc1ccncc1`, 35.5 µM [falling, single point]. For the compound `COc1ccc(-c2nnc(CSc3nnc(-c4ccncc4)n3C3CCCCC3)o2)cc1OC`, under setting [1], the AC50 is 0.00461 µM [falling, full curve, poor fit]. In the case of `CCOC(=O)CSc1nc2c(c(=O)[nH]1)C(C)(CC)Cc1ccccc1-2` (stereo unspecified), the AC50 was 14.1 µM [rising, single point] under setting [1] and 22.4 µM [falling, single point] under setting [2]. Take `CCC(=O)Nc1ccc(-c2nc3ccccc3c(=O)o2)cc1`: the AC50 under setting [1] was 35.5 µM [falling, single point]. Same read-out and setting: for `CCCOC(=O)CC1C(=O)NCCN1Cc1cc(OC)cc(OC)c1` (stereo unspecified) the value was 35.5 µM [rising, partial curve, poor fit].

With `O=C(COc1ccccc1F)NNC(=O)c1cccc(-n2cccc2)c1`, the AC50 under setting [1] is 12.6 µM [rising, partial curve, poor fit]. For the compound `c1nc(NC2CCCC2)c2[nH]cnc2n1`, under setting [1], the AC50 is 5.17 µM [falling, partial curve, poor fit]. `COc1cc(C(=O)Nc2ccc(Br)cc2C(=O)c2cc(OC)c(OC)c(OC)c2)cc(OC)c1OC`: the AC50 under setting [1] is 2.91 µM [rising, partial curve, poor fit]. Take `COc1ccccc1CNc1ncnc2c1c(-c1ccccc1)cn2-c1ccc(Br)cc1`: the AC50 under setting [1] is 1.26 µM [rising, full curve, poor fit]. On the same count and under the same terms, for `Cc1ccc(CN(c2ccc(C(=O)Nc3cccnc3)cc2)S(C)(=O)=O)cc1` the value was 2.06 µM [rising, partial curve, poor fit]. For the compound `CC1(C)CC(N=C2C([N+](=O)[O-])=CC=C3C2=NC2(CCCCC2)N3O)CC(C)(C)N1`, under setting [1], the AC50 is 35.5 µM [rising, single point]. Take `O=c1c2c(-c3ccco3)csc2nc(SCc2cn3cccnc3n2)n1-c1ccccc1`: the AC50 by setting is: under setting [1], 1.41 µM [rising, full curve, poor fit]; under setting [2], 15.8 µM [falling, partial curve, poor fit].

The values are drawn from PubChem BioAssay AID493014 (National Center for Advancing Translational Sciences (NCATS), 2011).
